According to PubChem BioAssay AID1671190 (National Center for Advancing Translational Sciences (NCATS), 2021):
Hit rate of the full screen: of about 580,000 compounds, about 6,100 (1.1%) were called active. Inconclusive results, whose numbers are uncertain, are shown with a selection of clear calls. The call rests on the fitted dose curve; in most records, active means well fitted inhibition curve with a large enough effect; inconclusive means small, poorly fitted or top-dose-only effect, or another doubt; inactive means no such curve, though single readings can be large or run the other way. A potency beside an inconclusive call is a rough fit, not a confirmed value.
On the % scale 0 is the no-effect control and ±100 the full control effect; potency means the concentration at half of the fitted maximal effect.

Chains of the proteins cited; added tags and fusions are not shown. Lines headed by an entry give the natural chain unless they say otherwise; changes in a name come on top.
UniProt P18054: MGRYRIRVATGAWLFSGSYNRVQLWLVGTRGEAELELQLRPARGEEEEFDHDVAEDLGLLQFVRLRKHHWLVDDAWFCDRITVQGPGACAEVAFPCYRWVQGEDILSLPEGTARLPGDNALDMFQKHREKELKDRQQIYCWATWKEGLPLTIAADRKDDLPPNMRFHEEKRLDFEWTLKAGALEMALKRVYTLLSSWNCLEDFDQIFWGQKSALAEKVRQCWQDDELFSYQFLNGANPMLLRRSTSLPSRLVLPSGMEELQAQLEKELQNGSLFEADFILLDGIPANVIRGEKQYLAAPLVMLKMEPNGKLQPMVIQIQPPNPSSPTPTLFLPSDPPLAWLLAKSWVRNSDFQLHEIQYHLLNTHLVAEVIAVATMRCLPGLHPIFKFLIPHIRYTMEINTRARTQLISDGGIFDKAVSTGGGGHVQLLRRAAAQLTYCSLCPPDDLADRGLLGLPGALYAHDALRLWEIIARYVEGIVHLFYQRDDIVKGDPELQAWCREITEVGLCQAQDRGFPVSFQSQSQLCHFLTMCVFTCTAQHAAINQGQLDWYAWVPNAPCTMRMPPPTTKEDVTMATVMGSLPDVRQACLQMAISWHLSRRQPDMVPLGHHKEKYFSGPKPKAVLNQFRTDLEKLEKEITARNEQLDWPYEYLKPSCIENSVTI

What follows are compounds tested against Polyunsaturated fatty acid lipoxygenase ALOX12 (Homo sapiens) (UniProt P18054) (assay: Primary qHTS assay for inhibitors of human arachidonate 12S-lipoxygenase (ALOX12): Round 2). Conditions: purified 12hLO, xylenol orange hydroperoxide absorbance; activity change, negative = inhibition: at 108 µM (top of the series) unless noted.
Procedure, shortened: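 Hydroperoxide product was detected by ferrous iron/xylenol orange as the 573 to 405 nm absorbance ratio. Arachidonic acid at 40 uM (final) was turned over for 30 min at room temperature by 150 nM human 12hLO, pH 7.0 Hepes buffer, after 15 min compound preincubation.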
In the case of `CS(=O)(=O)Nc1cccc(NC(=O)c2ccc(-c3ccc(F)c(F)c3)c3ccoc23)c1`, the Potency was inconclusive: 100 µM [inhibitor, partial curve, poor fit]. In the case of `Cn1c(=O)cc(OCC(=O)Nc2ccccn2)c2ccccc21`, the Potency was inconclusive: 50.1 µM [inhibitor, partial curve, poor fit]. In the case of `CC(C)(C)c1ccc(C(=O)NCc2ccc(Cl)cc2)cc1`, the “activity change, negative = inhibition” value was inactive: -8.6%. In the case of `O=C(O)C1=C[C@@H](c2ccc(Br)cc2)C[C@@H](OCCCCO)O1`, the Potency was inconclusive: 44.7 µM [inhibitor, partial curve, poor fit]. `Cc1ccc(CN2CC3(Cc4ccccc4NC3=O)C2)cc1` was tested, and the Potency was inconclusive: 112 µM [inhibitor, partial curve]. `CN1C(=O)CC(NNC(=O)c2ccccc2)C1=O` (configuration not stated) was tested, and the Potency was inconclusive: 0.562 µM [inhibitor, full curve, poor fit]. With `CCOC(=O)C1(CCOc2ccccc2)CCN(Cc2cc(OC)c(O)cc2Cl)CC1` the Potency was inconclusive: 79.4 µM [inhibitor, single point]. With `O=C(NCC1(N2CCCCC2)CCCCC1)C1CCN(C(=O)c2ccc(F)cc2)CC1` the “activity change, negative = inhibition” value was inactive: -7.6%. In the case of `CSc1nc(-c2ccccc2)c2ccccc2n1`, the Potency was inconclusive: 39.8 µM [inhibitor, partial curve]. With `COc1ccc(NC(=O)CN(C)C(C)C(=O)N2CCCCC2)cc1` (configuration not stated) the Potency was inconclusive: 0.178 µM [inhibitor, full curve, poor fit]. With `O=C(CSc1nc2cc([N+](=O)[O-])ccc2o1)Nc1ccc2ccccc2c1` the Potency was inconclusive: 79.4 µM [inhibitor, partial curve, poor fit]. In the case of `Cc1csc(=O)n1CCC(=O)OCC(=O)Nc1ncc(Cl)cc1Cl`, the Potency was inconclusive: 50.1 µM [inhibitor, partial curve, poor fit]. `COc1ccc(OC)c(CN2CCN(C(=O)c3ccc(F)cc3)CC2)c1` was tested, and the Potency was inconclusive: 0.447 µM [inhibitor, full curve, poor fit]. With `COc1ccc(NC2CCCN(C(=O)c3cn(CCCN)nn3)C2)cc1` (configuration not stated) the Potency was inconclusive: 35.5 µM [inhibitor, single point]. With `Cc1cc(-c2cccc(OC(C)C)c2)cnc1-n1cnnc1` the “activity change, negative = inhibition” value was inactive: 32.9%. With `CN1C(=O)C2(OCC(CO)([N+](=O)[O-])CO2)c2ccccc21` (configuration not stated) the Potency was inconclusive: 141 µM [inhibitor, single point]. With `CN(C1CCc2nn(C)c(=O)n2CC1)S(=O)(=O)c1ccc(Cl)s1` (configuration not stated) the “activity change, negative = inhibition” value was inactive: 18.6%. `CS(=O)(=O)N(Cc1csc(-c2cccs2)n1)C1CCN(C(=O)c2ccccc2Cl)CC1` was tested, and the “activity change, negative = inhibition” value was inactive: 0.898%. `COC(=O)c1cc2ccc(OC)cc2c2cc(OC)c(OC)cc12` was tested, and the Potency was inconclusive: 31.6 µM [inhibitor, single point]. With `C=CCNC(=O)NC(=O)CSc1nc(-c2ccccc2)c(-c2ccccc2)o1` the “activity change, negative = inhibition” value was inactive: -0.336%. For `COc1cccc(NC(=O)NC(C)c2ccc(Cl)s2)c1` (configuration not stated), the Potency was inconclusive: 89.1 µM [inhibitor, partial curve, poor fit]. With `CCCCCCCCOc1ccc(/C=C(/C#N)C(=O)NCc2ccccc2)cc1` the “activity change, negative = inhibition” value was inactive: -20.4%. For `COc1ccccc1-c1n[nH]c2c1CC(=O)N(CC1CC1)C2`, the Potency was inconclusive: 25.1 µM [inhibitor, full curve]. For `CCN(Cc1cccs1)C(=O)NCc1cccc(F)c1`, the “activity change, negative = inhibition” value was inactive: 17.7%. For `CCN(CC(O)COCCC12CC3CC(CC(C3)C1)C2)C1CCCCC1` (configuration not stated), the Potency was inconclusive: 44.7 µM [inhibitor, partial curve, poor fit]. With `CCCCNC(=S)Nc1cccc(Cl)c1` the Potency was inconclusive: 44.7 µM [inhibitor, partial curve, poor fit]. In the case of `CC1=CC(=O)C(Sc2ccc(C)cc2)=CC1=O`, the Potency was active: 1.12 µM. For `CCOC(=O)C1=C(N)n2c(s/c(=C/c3ccco3)c2=O)=C(C(=O)OC)C1c1ccco1` (configuration not stated), the Potency was inconclusive: 100 µM [inhibitor, partial curve, poor fit]. In the case of `CCOC(=O)c1cnc2ccc(C)cc2c1Nc1ccc(N2CCOCC2)cc1`, the Potency was inconclusive: 89.1 µM [inhibitor, partial curve, poor fit]. `CC(=O)N(CCC(Cc1ccccc1)c1ccco1)Cc1ccco1` (configuration not stated) was tested, and the Potency was inconclusive: 25.1 µM [inhibitor, single point]. `O=C(c1cc(-c2ccc(Cl)cc2)n[nH]1)N1CCc2ccccc2C1` was tested, and the activity change, negative = inhibition was inconclusive: -34.8% [inhibitor]. In the case of `O=c1c(-c2c(O)cc(O)c3c(=O)cc(-c4ccc(O)cc4)oc23)c(-c2ccc(O)cc2)oc2cc(O)cc(O)c12`, the Potency was inconclusive: 6.31 µM [inhibitor, full curve, poor fit]. With `Cc1nn(C)c2nc(-c3ccccn3)nc(N3CCC(c4ccc(F)cc4)C3)c12` (configuration not stated) the “activity change, negative = inhibition” value was inactive: 41.4%. `S=c1[nH]nc2ccccn12` was tested, and the Potency was inconclusive: 39.8 µM [inhibitor, partial curve, poor fit]. `CCCCN1C(=O)C(=O)c2cc(Cl)ccc21` was tested, and the Potency was inconclusive: 50.1 µM [inhibitor, single point]. In the case of `NC1=NOC(=O)C1C1CCCCC1` (configuration not stated), the Potency was inconclusive: 4.47 µM [inhibitor, full curve, poor fit]. For `COc1cccc2c(C)nc(Nc3nc(C)c(Cc4ccc(Cl)cc4)c(=O)[nH]3)nc12`, the Potency was inconclusive: 200 µM [inhibitor, partial curve, poor fit]. `Cc1cc(N2CCN(C(C(=O)O)c3c[nH]c4cc(Cl)ccc34)CC2)nc2ccccc12` (configuration not stated) was tested, and the Potency was active: 17.8 µM. In the case of `S=C(Nc1cc(Cl)cc(Cl)c1)NC1CCN(Cc2ccccc2)CC1`, the Potency was inconclusive: 44.7 µM [inhibitor, partial curve, poor fit]. `CCOC(=O)c1ccc(NC2=CC(=O)CC(c3ccco3)C2)cc1` (configuration not stated) was tested, and the “activity change, negative = inhibition” value was inactive: -8.34%. `CC1(C)[C@H](Cc2cc(CN3CCN(c4ccccc4)CC3)on2)C[C@@H]1NC(=O)NCc1ccccc1` was tested, and the Potency was inconclusive: 100 µM [inhibitor, partial curve, poor fit]. For `COc1ccc(NC(=O)C(c2ccccc2)N2CCN(c3ccccn3)CC2)cc1Cl` (configuration not stated), the “activity change, negative = inhibition” value was inactive: 1.35%. For `Cc1ccc(-c2cc(C(=O)NCCc3ccc(S(N)(=O)=O)cc3)c3ccccc3n2)cc1`, the “activity change, negative = inhibition” value was inactive: 0.768%. In the case of `N#Cc1ccccc1OCCCN1CCC(C(O)(c2ccccc2)c2ccccc2)CC1`, the Potency was inconclusive: 100 µM [inhibitor, single point]. With `O=C(Nc1cccc2ncccc12)c1ccc([N+](=O)[O-])o1` the “activity change, negative = inhibition” value was inactive: 17.8%. For `COc1ccc(CN(C)C(=O)C(CCSC)NS(=O)(=O)c2ccc3c(c2)OCCO3)c(OC)c1OC` (configuration not stated), the Potency was inconclusive: 100 µM [inhibitor, single point]. `CCN(CC)C(=O)Cn1cnc2c1c(=O)n(C)c(=O)n2C` was tested, and the activity change, negative = inhibition was inconclusive: -30.8% [inhibitor]. `CCN(CC)C(=O)OCc1c(-c2ccccc2)ncc2ccccc12` was tested, and the “activity change, negative = inhibition” value was inactive: -20.4%. For `Cc1ccc(C(C)C)c(OCCOCCN2CCNCC2)c1`, the “activity change, negative = inhibition” value was inactive: 1.27%. In the case of `COc1ccc(N(CC(=O)Nc2nc3ccc(C)cc3s2)S(=O)(=O)c2c(C)nn(C)c2C)cc1`, the “activity change, negative = inhibition” value was inactive: 31.7%. With `CCN1CCCC(NC(=O)c2scc3c2CCCC3)C1` (configuration not stated) the Potency was inconclusive: 79.4 µM [inhibitor, partial curve, poor fit]. In the case of `O=C(Nc1ccc(SC(F)F)cc1)c1ccc2nccnc2c1`, the Potency was inconclusive: 44.7 µM [inhibitor, partial curve, poor fit]. With `C/C(=N\Nc1nc2ccccc2[nH]1)c1ccc2c(c1)OCO2` the Potency was inconclusive: 50.1 µM [inhibitor, partial curve, poor fit]. `CC1(C)[N+]([O-])=C2C(=[N+]([O-])C1(C)C)c1ccccc1/C2=N\O` was tested, and the Potency was inconclusive: 50.1 µM [inhibitor, partial curve, poor fit]. For `COCCNC(=O)CS(=O)(=O)Cc1nc(-c2ccccc2Cl)oc1C`, the Potency was inconclusive: 35.5 µM [inhibitor, partial curve, poor fit]. For `Brc1ccccc1C1=Nn2c(nnc2-c2ccccc2)SC1`, the “activity change, negative = inhibition” value was inactive: -12.7%. For `O=C(C1CCN(Cc2cc(Cl)ccc2O)CC1)N1CCN(Cc2ccccc2)CC1`, the Potency was inconclusive: 0.282 µM [inhibitor, full curve]. For `O=C(c1ccccc1Cl)N1CCc2c(nc3cc(-c4ccccc4)[nH]n3c2=O)C1`, the Potency was inconclusive: 10 µM [inhibitor, full curve]. With `Cc1ccc(NC(=O)CN(C)C(=O)c2cc3cc(Cl)ccc3nc2C)cc1` the Potency was inconclusive: 39.8 µM [inhibitor, partial curve]. With `O=C(Nc1ccc2c(c1)CN(Cc1ccc(Cl)cc1)C(=O)CO2)c1ccc(F)cc1F` the Potency was inconclusive: 79.4 µM [inhibitor, partial curve, poor fit]. For `Cc1ccc(CNC(=O)C2CCC(=O)N(C3CCCC3)C2)c(F)c1F` (configuration not stated), the Potency was inconclusive: 25.1 µM [inhibitor, partial curve, poor fit]. In the case of `CCOC(=O)NC1(NC2CCCCC2)Oc2ccccc2O1`, the “activity change, negative = inhibition” value was inactive: -45.9%. `CC(C)CN(CCNC(=O)c1cc(-c2ccc(Cl)s2)nc2ccccc12)CC(C)C` was tested, and the Potency was inconclusive: 8.91 µM [inhibitor, partial curve, poor fit]. `CC1C(=O)N(Cc2ccccc2)c2ccccc2N1C(=O)c1ccccc1` (configuration not stated) was tested, and the Potency was inconclusive: 50.1 µM [inhibitor, partial curve, poor fit]. With `CCC(CC)c1nnc(NC(=O)CS(=O)(=O)c2ccc(C)cc2)s1` the Potency was inconclusive: 79.4 µM [inhibitor, partial curve, poor fit]. In the case of `COCC(O)CNc1ccccc1` (configuration not stated), the Potency was inconclusive: 7.08 µM [inhibitor, full curve, poor fit]. In the case of `CCc1ccc(NC(=O)Cn2ccn(-c3ccc(OC)c(OC)c3)c(=O)c2=O)cc1`, the Potency was inconclusive: 89.1 µM [inhibitor, single point].
